Measurements taken from patent publication US7445891B2, “Nucleic acid triggered catalytic drug and probe release” (priority 2001, dated 2008).
At least one read-out could not be matched to a standard name with certainty.

Experiment: Hydrolysis of esters in human serum
Settings: 25° C.

N-maleoyl-D-valine-2-nitrophenol ester [D-11b]
half life of hydrolysis in human serum: about 3 hours
